According to PMC12765265:
Results are given in words; binding and its absence hold for the method and conditions named. In cells and extracts the contact can be indirect.

Protein sequences, listed by entry. Tags and fused reporters are not part of them.
UniProt O95071: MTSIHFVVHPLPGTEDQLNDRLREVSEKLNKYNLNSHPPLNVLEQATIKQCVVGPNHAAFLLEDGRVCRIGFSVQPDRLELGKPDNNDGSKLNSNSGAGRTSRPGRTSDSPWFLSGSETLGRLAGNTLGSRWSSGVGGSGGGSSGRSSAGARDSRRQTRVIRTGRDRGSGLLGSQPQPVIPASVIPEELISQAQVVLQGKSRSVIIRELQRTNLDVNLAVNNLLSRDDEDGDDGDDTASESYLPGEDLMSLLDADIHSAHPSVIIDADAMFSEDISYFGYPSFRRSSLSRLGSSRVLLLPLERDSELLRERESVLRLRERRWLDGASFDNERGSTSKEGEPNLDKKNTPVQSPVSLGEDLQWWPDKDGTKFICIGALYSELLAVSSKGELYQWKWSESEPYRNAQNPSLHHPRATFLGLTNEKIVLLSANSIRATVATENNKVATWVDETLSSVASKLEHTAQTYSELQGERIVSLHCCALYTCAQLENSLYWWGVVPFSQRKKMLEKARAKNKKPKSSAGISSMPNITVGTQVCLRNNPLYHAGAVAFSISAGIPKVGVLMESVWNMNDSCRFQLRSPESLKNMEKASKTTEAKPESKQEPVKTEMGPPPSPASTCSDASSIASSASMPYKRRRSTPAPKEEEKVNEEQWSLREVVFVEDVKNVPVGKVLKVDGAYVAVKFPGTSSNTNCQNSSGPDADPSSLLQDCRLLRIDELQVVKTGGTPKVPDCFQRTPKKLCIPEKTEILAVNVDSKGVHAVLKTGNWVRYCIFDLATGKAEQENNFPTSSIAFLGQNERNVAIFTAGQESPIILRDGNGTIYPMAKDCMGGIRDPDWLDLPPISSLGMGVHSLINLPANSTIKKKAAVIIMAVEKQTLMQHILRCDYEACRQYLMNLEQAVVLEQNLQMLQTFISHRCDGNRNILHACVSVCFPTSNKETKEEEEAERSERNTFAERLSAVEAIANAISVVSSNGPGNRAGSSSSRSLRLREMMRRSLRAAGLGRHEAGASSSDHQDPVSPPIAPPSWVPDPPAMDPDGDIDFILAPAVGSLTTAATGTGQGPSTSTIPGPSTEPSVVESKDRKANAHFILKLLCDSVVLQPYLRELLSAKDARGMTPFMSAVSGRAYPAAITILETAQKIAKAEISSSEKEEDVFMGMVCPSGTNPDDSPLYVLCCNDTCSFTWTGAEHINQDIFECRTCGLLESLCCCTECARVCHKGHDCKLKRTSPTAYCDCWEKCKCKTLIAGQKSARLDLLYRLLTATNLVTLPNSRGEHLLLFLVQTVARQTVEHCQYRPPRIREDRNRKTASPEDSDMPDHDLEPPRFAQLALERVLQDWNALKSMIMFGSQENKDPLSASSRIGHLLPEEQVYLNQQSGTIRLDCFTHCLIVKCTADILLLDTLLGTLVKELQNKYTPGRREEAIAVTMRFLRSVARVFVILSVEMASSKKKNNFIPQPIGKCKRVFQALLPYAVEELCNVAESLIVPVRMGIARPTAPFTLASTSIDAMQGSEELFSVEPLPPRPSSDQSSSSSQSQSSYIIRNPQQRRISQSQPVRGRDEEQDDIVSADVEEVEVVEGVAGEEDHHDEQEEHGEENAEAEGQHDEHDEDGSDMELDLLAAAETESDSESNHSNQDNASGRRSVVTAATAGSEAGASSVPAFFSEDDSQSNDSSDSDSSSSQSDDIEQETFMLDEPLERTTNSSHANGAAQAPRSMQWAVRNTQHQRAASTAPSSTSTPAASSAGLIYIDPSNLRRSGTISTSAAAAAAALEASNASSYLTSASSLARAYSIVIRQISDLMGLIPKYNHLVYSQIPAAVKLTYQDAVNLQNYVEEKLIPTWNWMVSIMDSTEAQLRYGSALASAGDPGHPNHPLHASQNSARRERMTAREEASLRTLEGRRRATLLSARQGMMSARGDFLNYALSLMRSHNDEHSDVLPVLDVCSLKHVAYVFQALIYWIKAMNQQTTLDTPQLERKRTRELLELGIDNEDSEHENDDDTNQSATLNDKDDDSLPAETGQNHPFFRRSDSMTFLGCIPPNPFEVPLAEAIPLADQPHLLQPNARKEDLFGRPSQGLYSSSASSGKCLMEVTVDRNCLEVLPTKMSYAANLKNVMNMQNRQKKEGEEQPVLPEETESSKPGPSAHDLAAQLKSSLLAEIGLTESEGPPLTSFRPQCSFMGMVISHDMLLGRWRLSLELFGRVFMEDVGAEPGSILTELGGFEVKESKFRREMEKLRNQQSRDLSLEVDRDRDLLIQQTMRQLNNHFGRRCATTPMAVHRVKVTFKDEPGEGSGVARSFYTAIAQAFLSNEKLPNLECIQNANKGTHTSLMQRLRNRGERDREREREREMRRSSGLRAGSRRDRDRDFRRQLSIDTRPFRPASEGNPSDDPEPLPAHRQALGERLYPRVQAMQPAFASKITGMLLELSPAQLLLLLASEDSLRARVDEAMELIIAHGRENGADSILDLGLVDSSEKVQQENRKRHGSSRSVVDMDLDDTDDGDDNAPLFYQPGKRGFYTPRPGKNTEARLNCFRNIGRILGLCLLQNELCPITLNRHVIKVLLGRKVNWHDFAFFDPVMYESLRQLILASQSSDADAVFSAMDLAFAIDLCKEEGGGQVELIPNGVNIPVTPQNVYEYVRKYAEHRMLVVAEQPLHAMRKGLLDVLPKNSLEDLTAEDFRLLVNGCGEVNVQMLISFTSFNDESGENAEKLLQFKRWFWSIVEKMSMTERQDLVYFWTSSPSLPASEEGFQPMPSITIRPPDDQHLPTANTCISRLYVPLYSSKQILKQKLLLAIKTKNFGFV

Molecular target: Myc-tagged UBR5 (ubiquitin protein ligase E3 component N-recognin 5), wild type (UniProt O95071)
Test: co-IP; HEK293T co-transfected, 10 uM MG132 for 6 h; lysates immunoprecipitated with anti-Flag or anti-Myc at 4 °C overnight, protein A/G agarose; 150 mM NaCl, 50 mM Tris pH 7.5, 10% glycerol; western blot

binding: no binding
B1: Slug (protein, UniProt O43623 1-268)
chain: MPRSFLVKKHFNASKKPNYSELDTHTVIISPYLYESYSMPVIPQPEILSSGAYSPITVWTTAAPFHAQLPNGLSPLSGYSSSLGRVSPPPPSDTSSKDHSGSESPISDEEERLQSKLSDPHAIEAEKFQCNLCNKTYSTFSGLAKHKQLHCDAQSRKSFSCKYCDKEYVSLGALKMHIRTHTLPCVCKICGKAFSRPWLLQGHIRTHTGEKPFSCPHCNRAFADRSNLRAHLQTHSDVKKYQCKNCSKTFSRMSLLHKHEESGCCVAH
